Assay results published in PubChem BioAssay (NCATS).
The shares of active, inactive and inconclusive entries below differ from those in the screen. Potencies of inconclusive entries are doubtful fits and often do not repeat. Active and inactive are the calls of the source. The call rests on the fitted dose curve; in most records, active means well fitted cell-killing curve with a large enough effect; inconclusive means small, poorly fitted or top-dose-only effect, or effect the other way; inactive means no such curve, though single readings can be large or run the other way.

Experiments:
[1] = Quantitative High-Throughput drug screen in 47 multiple myeloma cell lines against the NCATS MIPE library collection: LP1_DSMZ cell viability assay (AID 1918982); further: nearly all actives have a fitted effect of over 35% in size
How it was run: (§1)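 Inhibition of viability over 48 h was scored by ATP content (CellTiter-Glo) in 500-cell wells. Zero and full viability were defined by media-only and DMSO-only wells.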

[2] = Quantitative High-Throughput drug screen in 47 multiple myeloma cell lines against the NCATS MIPE library collection: L363_DSMZ cell viability assay (AID 1918984); details: L363 myeloma viability, CellTiter-Glo ATP luminescence, 48 h; viability (% of control): at 45.8 µM (top of the series); further: nearly all actives have a fitted effect of over 40% in size
How it was run: as §1

[3] = Quantitative High-Throughput drug screen in 47 multiple myeloma cell lines against the NCATS MIPE library collection: KMS34_JCRB cell viability assay (AID 1918985); further: nearly all actives have a fitted effect of over 40% in size
How it was run: as §1

[4] = Quantitative High-Throughput drug screen in 47 multiple myeloma cell lines against the NCATS MIPE library collection: OCIMY7_PLB cell viability assay (AID 1918987); details: OCI-MY7 myeloma viability, CellTiter-Glo ATP, 48 h; viability (% of DMSO): at 45.8 µM (top of the series); further: nearly all actives have a fitted effect of over 65% in size
How it was run: as §1

[5] = Quantitative High-Throughput drug screen in 47 multiple myeloma cell lines against the NCATS MIPE library collection: OCIMY5_PLB cell viability assay (AID 1918988); further: nearly all actives have a fitted effect of over 65% in size
How it was run: as §1

[6] = Quantitative High-Throughput drug screen in 47 multiple myeloma cell lines against the NCATS MIPE library collection: OPM1_PLB cell viability assay (AID 1918989); further: nearly all actives have a fitted effect of over 40% in size
How it was run: as §1

[7] = Quantitative High-Throughput drug screen in 47 multiple myeloma cell lines against the NCATS MIPE library collection: U266_ATCC cell viability assay (AID 1919864); details: U266 myeloma viability, CellTiter-Glo ATP luminescence, 48 h; viability (% of DMSO control): at 45.8 µM (top of the series); further: nearly all actives have a fitted effect of over 35% in size
How it was run: as §1

[8] = Quantitative High-Throughput drug screen in 47 multiple myeloma cell lines against the NCATS MIPE library collection: XG6_PLB cell viability assay (AID 1919865); details: XG6 myeloma viability, CellTiter-Glo ATP luminescence, 48 h; viability (% of control): at 45.8 µM (top of the series); further: nearly all actives have a fitted effect of over 40% in size
How it was run: as §1

[9] = Quantitative High-Throughput drug screen in 47 multiple myeloma cell lines against the NCATS MIPE library collection: XG1_PLB cell viability assay (AID 1919866); details: CellTiter-Glo ATP, 48 h; viability: at 45.8 µM (top of the series); further: nearly all actives have a fitted effect of over 35% in size
How it was run: as §1

[10] = Quantitative High-Throughput drug screen in 47 multiple myeloma cell lines against the NCATS MIPE library collection: UTMC2_PLB cell viability assay (AID 1919868); details: CellTiter-Glo ATP luminescence, 48 h; viability (% of DMSO control): at 45.8 µM (top of the series); further: nearly all actives have a fitted effect of over 55% in size
How it was run: as §1

[11] = Quantitative High-Throughput drug screen in 47 multiple myeloma cell lines against the NCATS MIPE library collection: PE2_PLB cell viability assay (AID 1919869); details: PE2_PLB myeloma cells viability, ATP luminescence, 48 h; viability (% of control): at 45.8 µM (top of the series); further: nearly all actives have a fitted effect of over 35% in size
How it was run: as §1

[12] = Quantitative High-Throughput drug screen in 47 multiple myeloma cell lines against the NCATS MIPE library collection: RPMI8226_ATCC cell viability assay (AID 1919871); details: RPMI8226 myeloma viability, CellTiter-Glo ATP luminescence, 48 h; viability (% of control): at 45.8 µM (top of the series); further: nearly all actives have a fitted effect of over 30% in size
How it was run: as §1

[13] = Quantitative High-Throughput drug screen in 47 multiple myeloma cell lines against the NCATS MIPE library collection: KMS11_JCRBsus cell viability assay (AID 1919873); further: nearly all actives have a fitted effect of over 50% in size
How it was run: as §1

[14] = Quantitative High-Throughput drug screen in 47 multiple myeloma cell lines against the NCATS MIPE library collection: KMS28BM_JCRB cell viability assay (AID 1919874); further: nearly all actives have a fitted effect of over 35% in size
How it was run: as §1

[15] = Quantitative High-Throughput drug screen in 47 multiple myeloma cell lines against the NCATS MIPE library collection: KMS28PE_JCRB cell viability assay (AID 1918983); further: nearly all actives have a fitted effect of over 35% in size
How it was run: as §1

[16] = Quantitative High-Throughput drug screen in 47 multiple myeloma cell lines against the NCATS MIPE library collection: VP6_DJ cell viability assay (AID 1919867); details: ATP luminescence, 48 h; viability (% of DMSO): at 45.8 µM (top of the series); further: nearly all actives have a fitted effect of over 40% in size
How it was run: as §1

[17] = Quantitative High-Throughput drug screen in 47 multiple myeloma cell lines against the NCATS MIPE library collection: PCM6_Riken cell viability assay (AID 1919870); further: nearly all actives have a fitted effect of over 30% in size
How it was run: as §1

[18] = Quantitative High-Throughput drug screen in 47 multiple myeloma cell lines against the NCATS MIPE library collection: SKMM1_PLB cell viability assay (AID 1919863); details: SKMM1 myeloma viability, CellTiter-Glo ATP, 48 h; viability: hits give low values; further: nearly all actives have a fitted effect of over 35% in size
How it was run: as §1

[19] = Quantitative High-Throughput drug screen in 47 multiple myeloma cell lines against the NCATS MIPE library collection: OPM2_DSMZ cell viability assay (AID 1919872); further: nearly all actives have a fitted effect of over 30% in size
How it was run: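 Myeloma cell lines, 500 cells per well, exposed to MIPE 4.0 library compounds for 48 h at 37C, 5% CO2. Viability from ATP by CellTiter-Glo luminescence; normalised to DMSO (100%) and media-only (0%) wells.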
Potency means the concentration at half of the fitted maximal effect.

SMILES	Potency [1]	Potency [2]	Potency [3]	Potency [4]	Potency [5]	Potency [6]	Potency [7]	Potency [8]	Potency [9]	Potency [10]	Potency [11]	Potency [12]	Potency [13]	Potency [14]	Potency [15]	Potency [16]	Potency [17]	viability [18]	Potency [19]	Potency [18]
CC(C)[C@H]1C(=O)N[C@H](CO)Cc2c[nH]c3cccc(c23)N1C	inconclusive: 5.9 µM [rising, partial curve, poor fit]	inactive	inactive	inconclusive: 7.43 µM [rising, single point]	inactive	active: 0.372 µM	inactive	active: 0.0935 µM	inactive	inconclusive: 1.48 µM [rising, full curve]	inconclusive: 0.166 µM [cytotoxic, full curve, poor fit]	inconclusive: 0.0093 µM [rising, full curve]	inactive	inconclusive: 0.059 µM [cytotoxic, full curve, poor fit]						
C[C@](O)(COc1ccc(C#N)cc1)C(=O)Nc1ccc(C#N)c(C(F)(F)F)c1	inactive		inactive		inconclusive: 37.2 µM [cytotoxic, single point]	inconclusive: 26.4 µM [cytotoxic, single point]		inconclusive: 23.5 µM [cytotoxic, partial curve]	inconclusive: 37.2 µM [cytotoxic, single point]	inconclusive: 37.2 µM [cytotoxic, partial curve, poor fit]		inconclusive: 0.0526 µM [rising, full curve]	inconclusive: 33.2 µM [cytotoxic, single point]	inconclusive: 18.7 µM [cytotoxic, partial curve, poor fit]	inconclusive: 0.0083 µM [rising, full curve, poor fit]	inconclusive: 26.4 µM [cytotoxic, single point]	inconclusive: 33.2 µM [cytotoxic, single point]			
CC(=O)N(C)c1cccc(-c2ccnc3c(C(=O)c4cccs4)cnn23)c1	inactive		inconclusive: 3.72 µM [cytotoxic, full curve, poor fit]	inconclusive: 0.0042 µM [rising, full curve, poor fit]	inconclusive: 29.6 µM [cytotoxic, single point]	inconclusive: 23.5 µM [cytotoxic, partial curve, poor fit]	inconclusive: 16.6 µM [cytotoxic, partial curve, poor fit]	inactive		inconclusive: 0.0012 µM [cytotoxic, full curve, poor fit]					inactive	inconclusive: 0.0526 µM [rising, full curve]		inactive: 119%		
C[C@]12CCC(=O)C=C1CC[C@@H]1[C@H]3CC[C@](C)(O)[C@@]3(C)CC[C@@H]12	inconclusive: 67.9 µM [cytotoxic, single point]	inconclusive: 10.8 µM [rising, partial curve, poor fit]	inconclusive: 42.9 µM [cytotoxic, partial curve, poor fit]	active: 30.3 µM		inactive		inconclusive: 38.2 µM [cytotoxic, partial curve]	inconclusive: 67.9 µM [cytotoxic, single point]	inactive	inconclusive: 48.1 µM [cytotoxic, single point]			inconclusive: 42.9 µM [cytotoxic, partial curve]		inconclusive: 42.9 µM [cytotoxic, single point]	inconclusive: 34 µM [cytotoxic, partial curve, poor fit]		inconclusive: 38.2 µM [cytotoxic, partial curve, poor fit]	
Cc1ccccc1-n1c(Cn2ncc3c(N)ncnc32)nc2cccc(C)c2c1=O	inconclusive: 7.43 µM [cytotoxic, full curve]		inconclusive: 3.32 µM [cytotoxic, full curve]				inactive				inconclusive: 0.187 µM [cytotoxic, full curve]			inconclusive: 1.05 µM [cytotoxic, full curve]						active: 5.26 µM
C[C@]12CC[C@H]3[C@@H](CCC4=CC(=O)CC[C@@]43C)[C@H]1CC[C@H]2O	inconclusive: 0.0023 µM [cytotoxic, full curve, poor fit]		inactive	inactive	inconclusive: 0.833 µM [cytotoxic, full curve, poor fit]	inconclusive: 0.0118 µM [rising, full curve, poor fit]	inconclusive: 0.0469 µM [rising, full curve]		inconclusive: 0.001 µM	inactive			inconclusive: 11.8 µM [cytotoxic, single point]	inconclusive: 11.8 µM [cytotoxic, single point]				inactive: 133%		
C[C@](O)(CS(=O)(=O)c1ccc(F)cc1)C(=O)Nc1ccc(C#N)c(C(F)(F)F)c1	inconclusive: 33.2 µM [cytotoxic, single point]	inconclusive: 0.0021 µM [rising, full curve, poor fit]	inconclusive: 29.6 µM [cytotoxic, single point]				active: 0.935 µM		active: 0.418 µM	inconclusive: 3.32 µM [cytotoxic, partial curve, poor fit]			inactive	inconclusive: 26.4 µM [cytotoxic, single point]					inconclusive: 33.2 µM [cytotoxic, partial curve, poor fit]	
CCc1c(C(=O)C(N)=O)c2c(OCC(=O)O)cccc2n1Cc1ccccc1	inactive	inconclusive: 0.0526 µM [cytotoxic, full curve, poor fit]	inactive	inactive	inactive		inactive			inconclusive: 23.5 µM [cytotoxic, partial curve, poor fit]	inactive		inactive			inconclusive: 0.0187 µM [rising, full curve]				
COc1cccc2c1[C@]13CCN(CC4CC4)[C@H](C2)[C@]1(OC)CCC(=O)C3	inactive		inconclusive: 0.0047 µM [rising, full curve, poor fit]	inactive	inactive		inactive		inactive	inconclusive: 0.105 µM [rising, full curve, poor fit]		inconclusive: 0.0023 µM [rising, full curve, poor fit]				active: 20.9 µM			inactive	inconclusive: 0.0012 µM [rising, full curve, poor fit]
C[C@@H]1[C@@H](C(=O)C[C@H]2O[C@@H]3O[C@]4(C)CC[C@@H]5[C@H](C)CC[C@@H]([C@H]2C)[C@@]35OO4)O[C@@H]2O[C@]3(C)CC[C@H]4[C@H](C)CC[C@@H]1[C@@]24OO3	inconclusive: 0.264 µM [cytotoxic, full curve]		active: 0.235 µM				inconclusive: 9.35 µM [cytotoxic, full curve, poor fit]	inconclusive: 0.235 µM [cytotoxic, full curve]	inconclusive: 0.372 µM [cytotoxic, full curve]				inconclusive: 0.372 µM [cytotoxic, full curve]	inconclusive: 0.469 µM [cytotoxic, full curve]		inconclusive: 0.264 µM [cytotoxic, full curve, poor fit]	inconclusive: 0.526 µM [cytotoxic, full curve]			
Cc1c(C(=O)Nc2cccc(C(F)(F)F)c2)cc(-c2ccccc2)n1CCCN1CCOCC1	inconclusive: 16.6 µM [cytotoxic, partial curve]	active: 5.9 µM	inconclusive: 16.6 µM [cytotoxic, partial curve]		active: 16.6 µM			inconclusive: 16.6 µM [cytotoxic, partial curve]	inconclusive: 0.332 µM [cytotoxic, full curve]	active: 5.9 µM		active: 14.8 µM		active: 5.9 µM		inconclusive: 2.64 µM [cytotoxic, full curve, poor fit]	inconclusive: 0.469 µM [cytotoxic, full curve, poor fit]		inconclusive: 0.0015 µM [cytotoxic, full curve, poor fit]	active: 26.4 µM
CCNC(=O)CC1N=C(c2ccc(Cl)cc2)c2cc(OC)ccc2-n2c(C)nnc21 (configuration not stated)	inconclusive: 4.18 µM [cytotoxic, full curve]	inconclusive: 5.9 µM [cytotoxic, partial curve]	inconclusive: 5.9 µM [cytotoxic, full curve]		active: 6.62 µM						inconclusive: 16.6 µM [cytotoxic, partial curve, poor fit]						active: 23.5 µM			inconclusive: 23.5 µM [cytotoxic, partial curve, poor fit]

Looked up above:
Value of Cc1c(C(=O)Nc2cccc(C(F)(F)F)c2)cc(-c2ccccc2)n1CCCN1CCOCC1 under Potency [10]: active: 5.9 µM
Value of C[C@](O)(CS(=O)(=O)c1ccc(F)cc1)C(=O)Nc1ccc(C#N)c(C(F)(F)F)c1 under Potency [14]: inconclusive: 26.4 µM [cytotoxic, single point]
